From PubChem BioAssay AID504467 (National Center for Advancing Translational Sciences (NCATS), 2011)
In all, about 330,000 compounds went through this assay and about 7,700 (2.3%) were called active. This list was built around the results that the source calls inconclusive (neither active nor inactive); the mix of calls is not that of the screen. Calls follow the shape of the dose curve; as a rule, active = well fitted inhibition curve with a large enough effect; inconclusive = small, poorly fitted or top-dose-only effect, or effect the other way; inactive = flat fitted curve, though single readings scatter. Potencies beside an inconclusive call are fits to weak or partial responses and may not hold up.

Assay: qHTS screen for small molecules that inhibit ELG1-dependent DNA repair in human embryonic kidney (HEK293T) cells expressing luciferase-tagged ELG1; also: nearly all actives have a fitted effect of over 55% in size
Conditions: HEK293T ELG1-luciferase reporter, luminescence, 16 h, DNA damage induced by 5-fluorouridine; activity change, negative = inhibition: at 46.1 µM (top of the series)
Outline: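 HEK293T cells expressing luciferase-tagged ELG1 (2,000/well) received 5-Fluorouridine plus compound or DMSO for 16 hr at 37 °C. Luciferase was read by ONE-Glo luminescence after 30 min at room temperature.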
% is scaled to controls: 0 for no effect and ±100 for the full control effect; potency is read from the fitted curve at half-maximal effect.

Compound	Potency	activity change, negative = inhibition
COc1ccc2[nH]c3c(=O)n(Cc4ccc(C(=O)N5CCCCCC5)cc4)c(=S)[nH]c3c2c1	inconclusive: 1.46 µM [inhibitor, full curve]	–
c1ccc(-c2cn(C[C@H]3CC[C@@H]([C@@H]4CC[C@H](Cn5cc(-c6ccccc6)nn5)O4)O3)nn2)cc1	–	inactive: -1.63%
CCn1c(Oc2ccccc2F)nc2c1c(=O)n(C)c(=O)n2C	inconclusive: 4.61 µM [inhibitor, full curve]	–
CN1CCN(S(=O)(=O)c2cccc(C(=O)Nc3sc4c(c3-c3nc5ccccc5[nH]3)CCCC4)c2)CC1	inconclusive: 6.51 µM [inhibitor, partial curve]	–
CCCN(CC(=O)Nc1cc(Cl)ccc1Cl)C(=O)/C=C/c1cc(OC)ccc1OC	inconclusive: 32.6 µM [inhibitor, single point]	–
O=C(NNC(=O)c1ccccc1O)c1ccc(Cl)c(S(=O)(=O)N2CCc3ccccc32)c1	–	inactive: 21.5%
C=CCNC(=O)c1cccc(NS(=O)(=O)c2ccc(Cl)cc2)c1	inconclusive: 10.3 µM [inhibitor, partial curve, poor fit]	–
COc1ccc(N2CCN(Cc3cc(=O)oc4cc(C)c(Cl)cc34)CC2)cc1	–	inactive: 7.38%
N#CC1(NC(=O)COC(=O)c2ccccc2[N+](=O)[O-])CCCCC1	inconclusive: 23.1 µM [activator, single point]	–
CN(C(=O)Cn1nnc(-c2cccnc2)n1)C1CCCCC1	–	inactive: 9.8%
COc1ccccc1NS(=O)(=O)c1cc(NC(=O)c2ccc3c(c2)OCCO3)ccc1C	inconclusive: 18.4 µM [inhibitor, single point]	–
O=C(N/N=C(\c1ccccc1)c1cccnc1)C(O)(c1ccccc1)c1ccccc1	inconclusive: 18.4 µM [inhibitor, single point]	–
COC(=O)c1c(N2C(=O)[C@H]3[C@@H](C2=O)[C@]2(C(=O)Nc4ccc(C)cc42)N2CCC[C@@H]32)sc(C)c1C	active: 8.2 µM	–
CN1CCC(NC(=O)c2cccc(Oc3ccccc3)c2)CC1	–	inactive: 0.451%
COC(=O)c1c(C)[nH]c(C(=O)C(C)OC(=O)C2CC2)c1C (stereo unspecified)	–	inactive: -2.83%
CCOc1ccccc1C(=O)N[C@H](C(=O)OCc1cc(=O)oc2cc(C)ccc12)C(C)C	inconclusive: 29.1 µM [inhibitor, single point]	–
Oc1ccc2ccccc2c1C=NCc1ccccc1	inconclusive: 29.1 µM [inhibitor, single point]	–
O=C(Nc1ccccc1Oc1cccnc1)C1CCCN(Cc2ccc(F)cc2)C1 (stereo unspecified)	–	inactive: -3.6%
COc1cccc(/C(N)=N/OC(=O)Cc2ccccc2[N+](=O)[O-])c1	inconclusive: 29.1 µM [activator, single point]	–
Cc1ccc(C)c(OCCC(=O)Nc2cc(S(=O)(=O)N3CCCCC3)ccc2C)c1	inconclusive: 32.6 µM [inhibitor, single point]	–
CCn1c(=O)c(=O)n(CC)c2cc(S(=O)(=O)Nc3ccc(C)cc3)ccc21	–	inactive: -9.41%
O=C(Nc1ccccc1)c1snc2c(=O)[nH]cnc12	–	inactive: 19.8%
CCOCC(=O)Nc1ccc(C(=O)Nc2ccccc2Cl)cc1	inconclusive: 16.4 µM [activator, single point]	–
O=C(CCCCCn1c(=S)[nH]c2cc3c(cc2c1=O)OCO3)N1CCN(Cc2ccccc2)CC1	–	inactive: -26.7%

Compound	Potency	activity change, negative = inhibition
COc1ccc(Nc2cc(C(=O)NCc3cccnc3)c3ccccc3n2)c(OC)c1	–	inactive: -16.3%
O=C1/C(=C/c2cccs2)SC(=S)N1CCC(=O)N1CCCCC1CCO (stereo unspecified)	inconclusive: 20.6 µM [activator, partial curve]	–
COc1ccc(/C(O)=C2/C(=O)C(=O)N(CCN(C)C)C2c2ccccn2)cc1OC (stereo unspecified)	–	inactive: 14.6%
CCOc1cc(CNCCO)cc(Br)c1OCc1ccccc1	inconclusive: 16.4 µM [inhibitor, partial curve]	–
Cc1ccc(-c2noc(CSc3nnc(-c4ccncc4)n3-c3ccc(C)cc3)n2)cc1	–	inactive: -26.1%
CC(C)CNC(=O)c1cc(-c2ccc(Br)cc2)on1	inconclusive: 11.6 µM [activator, partial curve]	–
CC(Sc1nnc(Cc2ccccc2)o1)C(=O)Nc1ccccc1[N+](=O)[O-] (stereo unspecified)	inconclusive: 29.1 µM [activator, single point]	–
COc1ccc(-c2c(NC(=O)c3ccco3)oc3c(C)cccc3c2=O)cc1	inconclusive: 8.2 µM [inhibitor, partial curve]	–
CCc1nnc(NC(=O)CN2CCN(C3CCCCC3)CC2)s1	inconclusive: 7.31 µM [activator, partial curve]	–
CCN(CC)C(=O)COn1c(SCC(=O)N(CC)CC)nc2ccccc2c1=O	–	inactive: -5.72%
COc1cc(N=Cc2c(O)[nH]c3ccccc23)cc(OC)c1OC	inconclusive: 18.4 µM [inhibitor, single point]	–
CC(=O)Nc1ccc(C#Cc2ccc(NC(C)=O)cc2)cc1	inconclusive: 5.8 µM [activator, single point]	–
CCc1c(C)sc(NC(=S)N2CCN(CC)CC2)c1C(=O)OC	–	inactive: -13.7%
Cc1ccc(CNC(C)(C)CO)cc1	–	inactive: 4.46%
COc1ccc(OC)c(S(=O)(=O)Nc2ccc(O)c3ccccc23)c1	active: 10.3 µM	–
COc1cc(C(=O)OCC(C)=O)cc(NC(=O)c2ccco2)c1OC	inconclusive: 29.1 µM [inhibitor, single point]	–
Cc1ccc(S(=O)(=O)Oc2ccccc2/C=N/NC(=O)c2nn(C)cc2[N+](=O)[O-])cc1	inconclusive: 23.1 µM [inhibitor, single point]	–
O=[N+]([O-])c1cc(Cl)cc(/C=N/NC(=S)Nc2cc(S(=O)(=O)N3CCOCC3)ccc2Cl)c1O	active: 20.6 µM	–
CCOc1ccc(NC(=O)CN(C)CC(=O)Nc2ccc(Br)cc2F)cc1OCC	inconclusive: 20.6 µM [inhibitor, partial curve]	–
CC(Oc1cccc(Cl)c1)C(=O)Nc1nc(-c2ccccn2)cs1 (stereo unspecified)	inconclusive: 25.9 µM [inhibitor, single point]	–
CC(=O)c1ccc(NC(=O)c2ccc([N+](=O)[O-])o2)cc1	–	inactive: -3.76%
Cc1cccc(NC(=O)C(=O)C2C(=O)Nc3ccccc32)c1 (stereo unspecified)	–	inactive: 8.58%
O=C(NC1CCCC1)C(c1ccco1)N(C(=O)c1ccco1)c1ccc(F)cc1 (stereo unspecified)	–	inactive: -2.68%
O=C1COc2ccc(C(=O)COC(=O)c3cc(S(=O)(=O)N4CCOCC4)ccc3F)cc2N1	–	inactive: 31.5%

Compound	Potency	activity change, negative = inhibition
CC(=O)Nc1ccc(C(=O)n2nc(C)cc2C)cc1	–	inactive: 15%
CCOc1ccc(S(=O)(=O)Nc2ccc(C(=O)NNC(=O)c3ccncc3)cc2)cc1	inconclusive: 1.16 µM [inhibitor, single point]	–
CCOc1ccccc1NC(=O)COC(=O)CC(C)(C)CC1=NS(=O)(=O)c2ccccc2N1	–	inactive: -16.9%
N#Cc1ccc(-n2c(-c3ccccc3)nnc2-c2ccccc2)cc1C#N	inconclusive: 29.1 µM [inhibitor, single point]	–
O=C(NCC(=O)N(c1cnc2ccccc2c1)C(C(=O)NC1CCCC1)c1ccncc1)c1ccco1 (stereo unspecified)	inconclusive: 18.4 µM [activator, single point]	–
Nc1nc(CSC(=S)N2CCN(c3ccccc3)CC2)nc(Nc2ccc(F)cc2)n1	inconclusive: 29.1 µM [inhibitor, single point]	–
Cc1nc2ccccc2c2oc(C(=O)Nc3ccc4c(c3)OCCO4)cc12	active: 20.6 µM	–
COc1ccc(C(=O)NC(=S)Nc2ccc(NC(=O)c3ccco3)cc2)cc1[N+](=O)[O-]	inconclusive: 10.3 µM [activator, partial curve, poor fit]	–
CN(Cc1ccc(Cl)s1)C(=O)CN1C(=O)N(C)C2(CCCCC2)C1=O	inconclusive: 16.4 µM [activator, single point]	–
COc1ccc(COc2ccc3c(C)cc(=O)oc3c2)cc1	inconclusive: 5.17 µM [activator, full curve]	–
COCn1c(COc2ccc3ccccc3c2)nc2ccccc21	inconclusive: 2.91 µM [activator, full curve]	–
COc1ccc(CCN2C(=O)c3[nH]nc(-c4ccccc4O)c3C2c2cccc(O)c2)cc1OC (stereo unspecified)	active: 18.4 µM	–
Cc1ccc(S(=O)(=O)N2CCC(C(=O)OCC(=O)NCCc3ccccc3)CC2)cc1C	inconclusive: 0.517 µM [inhibitor, single point]	–
O=Cc1ccc(-c2cc(Cl)ccc2Cl)[nH]1	–	inactive: -3.75%
CCN(CC)CC(O)Cn1c(-c2ccccc2Cl)nc2ccccc21 (stereo unspecified)	inconclusive: 23.1 µM [activator, single point]	–
CCCc1nc(SCC(=O)N2c3ccccc3CC2C)c2c(C)c(C)sc2n1 (stereo unspecified)	inconclusive: 18.4 µM [inhibitor, partial curve]	–
COC(=O)CC1(C(=O)OC)Oc2ccc(Br)cc2C(=O)N1c1cc(Cl)cc(Cl)c1 (stereo unspecified)	inconclusive: 29.1 µM [inhibitor, single point]	–
Cc1cccn2c(=O)c3cc(C(=O)NC4CCCC4)c(=N)n(Cc4ccc(F)cc4)c3nc12	–	inactive: -7.04%
O=C(Nc1nc2ccccc2n1CCN1CCCCC1)c1ccc(Cl)cc1	–	inactive: 21.5%
O=C(Nc1cc(-c2ccccc2)nn1C1CCCCC1)c1ccc(Cl)cc1	inconclusive: 29.1 µM [inhibitor, single point]	–
Cc1ccc(OC(C)C(=O)Nc2ccncc2)cc1C (stereo unspecified)	inconclusive: 2.31 µM [inhibitor, full curve, poor fit]	–
Cc1ccc(NC(=O)Cn2nc(-c3ccco3)ccc2=O)cc1Cl	–	inactive: -11.8%
O=C(NCCc1cccs1)C12CN(Cc3ccccc3)CC1C(c1cccc([N+](=O)[O-])c1)=NO2 (stereo unspecified)	inconclusive: 11.6 µM [inhibitor, partial curve, poor fit]	–
